Measurements reported in PubChem BioAssay AID1671195 (Yale University, 2021).

- Purpose: 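Regulators of LDL receptor activity judged by labelled LDL uptake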 (primary screen)
- System: human Huh7 hepatoma cells
- Knock-down reagent: siRNA pool against human genes, 18 nM
- Timing: about 2 to 2.5 days of knockdown, then 8 h LDL uptake
- Challenge: DiI-labelled LDL at 30 µg/ml for 8 h, in lipoprotein-deficient serum medium
- Measurement: 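Per-cell DiI-LDL intensity by automated imaging; well means scaled to the plate median and given as a robust z-score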
- Scale: robust z-score: higher = more LDL uptake after knockdown
- Hit rule: 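Active when two or more replicates show a robust z-score above 2 or below -2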
The whole screen tested about 22,000 reagents; below is an unselected part. About 1,510 of all reagents (6.9%) count as active. 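Active includes knockdowns raising or lowering LDL uptake; positive z-scores mean more uptake, negative mean less.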

PELI2
- robust z-score, replicate 1: 1.93
- robust z-score, replicate 2: 2.39
- robust z-score, replicate 3: 0.685
- Call: active

RPS19
- robust z-score, replicate 1: -1.76
- robust z-score, replicate 2: -0.377
- robust z-score, replicate 3: -0.911
- Call: inactive

FOLR3
- robust z-score, replicate 1: -0.452
- robust z-score, replicate 2: -0.545
- robust z-score, replicate 3: -0.372
- Call: inactive

TSGA13
- robust z-score, replicate 1: -0.953
- robust z-score, replicate 2: -0.718
- robust z-score, replicate 3: -0.615
- Call: inactive

FKRP
- robust z-score, replicate 1: -0.578
- robust z-score, replicate 2: -0.103
- robust z-score, replicate 3: -0.639
- Call: inactive

PES1
- robust z-score, replicate 1: -2.56
- robust z-score, replicate 2: -2.01
- robust z-score, replicate 3: -2.17
- Call: active

FCSK
- robust z-score, replicate 1: -1.51
- robust z-score, replicate 2: -1.92
- robust z-score, replicate 3: -2.13
- Call: active

LOC441786 (retired record)
- robust z-score, replicate 1: -0.671
- robust z-score, replicate 2: -0.314
- robust z-score, replicate 3: 0.136
- Call: inactive

DLG4
- robust z-score, replicate 1: 0.396
- robust z-score, replicate 2: 1.2
- robust z-score, replicate 3: 0.37
- Call: inactive

LOC285018 (retired record)
- robust z-score, replicate 1: -1.08
- robust z-score, replicate 2: -1.53
- robust z-score, replicate 3: -1.51
- Call: inactive

FOXL2NB
- robust z-score, replicate 1: -1.4
- robust z-score, replicate 2: -1.32
- robust z-score, replicate 3: -1.19
- Call: inactive

POTEA
- robust z-score, replicate 1: -0.708
- robust z-score, replicate 2: -0.86
- robust z-score, replicate 3: -0.735
- Call: inactive

TACSTD2
- robust z-score, replicate 1: 0.428
- robust z-score, replicate 2: 0.3
- robust z-score, replicate 3: 0.553
- Call: inactive

SERPINB7
- robust z-score, replicate 1: -0.486
- robust z-score, replicate 2: -0.282
- robust z-score, replicate 3: 1.72
- Call: inactive

ZNF683
- robust z-score, replicate 1: -1.44
- robust z-score, replicate 2: -1.55
- robust z-score, replicate 3: -1.06
- Call: inactive

MYO1H
- robust z-score, replicate 1: 0.0823
- robust z-score, replicate 2: 0.203
- robust z-score, replicate 3: 0.0263
- Call: inactive

PYGO1
- robust z-score, replicate 1: 0.501
- robust z-score, replicate 2: 0.269
- robust z-score, replicate 3: 0.244
- Call: inactive

ZNF598
- robust z-score, replicate 1: -1.24
- robust z-score, replicate 2: -1.01
- robust z-score, replicate 3: -0.988
- Call: inactive

RPS3A
- robust z-score, replicate 1: -0.977
- robust z-score, replicate 2: -0.402
- robust z-score, replicate 3: 1.21
- Call: inactive

RAB24
- robust z-score, replicate 1: -0.61
- robust z-score, replicate 2: -0.536
- robust z-score, replicate 3: 0.227
- Call: inactive

IKZF3
- robust z-score, replicate 1: -1.32
- robust z-score, replicate 2: -1.53
- robust z-score, replicate 3: -1.32
- Call: inactive

TBC1D27P
- robust z-score, replicate 1: -0.507
- robust z-score, replicate 2: 1.06
- robust z-score, replicate 3: 0.54
- Call: inactive

TNNI2
- robust z-score, replicate 1: 1.07
- robust z-score, replicate 2: -0.954
- robust z-score, replicate 3: 1.95
- Call: inactive

NR2E1
- robust z-score, replicate 1: -0.43
- robust z-score, replicate 2: 0.622
- robust z-score, replicate 3: -0.521
- Call: inactive

Copied from the entries so far for reference:
POTEA
- robust z-score, replicate 1: -0.708
- robust z-score, replicate 2: -0.86
- robust z-score, replicate 3: -0.735
- Call: inactive

TACSTD2
- robust z-score, replicate 1: 0.428
- robust z-score, replicate 2: 0.3
- robust z-score, replicate 3: 0.553
- Call: inactive

SERPINB7
- robust z-score, replicate 1: -0.486
- robust z-score, replicate 2: -0.282
- robust z-score, replicate 3: 1.72
- Call: inactive

ZNF683
- robust z-score, replicate 1: -1.44
- robust z-score, replicate 2: -1.55
- robust z-score, replicate 3: -1.06
- Call: inactive
